US9066923B2, “Methods for Alzheimer's disease treatment and cognitive enhancement” (Blanchette Rockefeller Neurosciences Institute, priority 2002, dated 2015)

Key:
[1] = tested on: sAPP secretion; conditions: control and AD fibroblasts; cited from earlier work
[2] = tested on: sAPPα secretion; assay: sAPPα secretion in cultured human skin fibroblasts (immunoblot, antibody 6E10); format: cell-based; conditions: staurosporin together with bryostatin
Description: Cultured skin fibroblasts were obtained from the Coriell Cell Repositories and grown using the general guidelines established for their culture with slight modifications (Cristofalo & Carptentier, 1988; Hirashima et al., 1996). The culture medium in which cells were grown was Dulbecco's modified Eagle's medium (GIBCO) supplemented with 10% calf serum (Biofluids, Inc.). Fibroblasts from control cell lines (AC), cases AG07141 and AG06241, and a familial AD (FAD) case (AG06848) were utilized.
Cells grown to confluence in 6 cm Petri dishes for 5-7 days. On the day of the experiment, medium was replaced with DMEM without serum and left undisturbed for 2 h. Upon completion of the 2 hour serum deprivation, treatment was achieved by direct application to the medium of Bryo, BL and DMSO at the appropriate concentrations. DMSO was less than 1% in all cases. In most cases, medium was collected and processed after 3 hours of treatment for sAPP secretion. […]
The concentration of secreted APP was measured using conventional immunoblotting techniques, with minor modifications the protocol. […] The signal was then detected using enhanced chemiluminescence followed by exposure of Hyperfilm ECL (Amersham). The band intensities were quantitative by densitometry using a BioRad GS-800 calibrated scanning densitometer and Multianalyst software (BioRad).

## CN[C@@H]1C[C@H]2O[C@@](C)([C@@H]1OC)n1c3ccccc3c3c4c(c5c6ccccc6n2c5c31)C(=O)NC4 [staurosporine]
[1]
  effect of PKC inhibitor on the benzolactam effect: eliminated the effects of benzolactam
[2]
  effect of PKC inhibitor on bryostatin-induced sAPP secretion: completely prevents the effect of bryostatin on sAPP secretion
